Results on 4 molecules are retold here after paper PMC5513536.

By UniProt entry, the sequences of proteins in these tests, tags left out.
UniProt F5HID2: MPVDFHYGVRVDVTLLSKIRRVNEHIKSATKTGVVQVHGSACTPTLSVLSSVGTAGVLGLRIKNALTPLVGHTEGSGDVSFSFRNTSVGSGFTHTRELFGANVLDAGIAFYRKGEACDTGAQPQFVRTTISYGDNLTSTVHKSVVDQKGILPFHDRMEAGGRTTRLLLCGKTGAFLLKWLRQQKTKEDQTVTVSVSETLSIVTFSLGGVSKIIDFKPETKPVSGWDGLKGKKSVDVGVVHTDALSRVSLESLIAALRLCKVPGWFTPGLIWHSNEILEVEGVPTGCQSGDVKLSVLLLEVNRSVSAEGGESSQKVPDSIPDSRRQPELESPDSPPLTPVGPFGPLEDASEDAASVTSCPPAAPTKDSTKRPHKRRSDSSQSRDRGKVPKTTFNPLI

Results are given in words; binding and its absence hold for the method and conditions named. In cells and extracts the contact can be indirect. These calls come from enrichment with a bait or labelling near it, and not all partners need be listed.

The assay concerns the target Flag-epitope tagged ORF59 (BAC16-ORF59Flag) (KSHV (human herpesvirus 8)) (UniProt F5HID2). Description: affinity purification with mass spectrometry.

B1: Isoform 2 of DNA replication licensing factor MCM3 (protein, UniProt P25205-2 1-853)
chain: MLPRSPPLPRGNLWWREEFGSFRAGVESSWEPPRDFGGGSSLAAGMAGTVVLDDVELREAQRDYLDFLDDEEDQGIYQSKVRELISDNQYRLIVNVNDLRRKNEKRANRLLNNAFEELVAFQRALKDFVASIDATYAKQYEEFYVGLEGSFGSKHVSPRTLTSCFLSCVVCVEGIVTKCSLVRPKVVRSVHYCPATKKTIERRYSDLTTLVAFPSSSVYPTKDEENNPLETEYGLSVYKDHQTITIQEMPEKAPAGQLPRSVDVILDDDLVDKAKPGDRVQVVGTYRCLPGKKGGYTSGTFRTVLIACNVKQMSKDAQPSFSAEDIAKIKKFSKTRSKDIFDQLAKSLAPSIHGHDYVKKAILCLLLGGVERDLENGSHIRGDINILLIGDPSVAKSQLLRYVLCTAPRAIPTTGRGSSGVGLTAAVTTDQETGERRLEAGAMVLADRGVVCIDEFDKMSDMDRTAIHEVMEQGRVTIAKAGIHARLNARCSVLAAANPVYGRYDQYKTPMENIGLQDSLLSRFDLLFIMLDQMDPEQDREISDHVLRMHRYRAPGEQDGDAMPLGSAVDILATDDPNFSQEDQQDTQIYEKHDNLLHGTKKKKEKMVSAAFMKKYIHVAKIIKPVLTQESATYIAEEYSRLRSQDSMSSDTARTSPVTARTLETLIRLATAHAKARMSKTVDLQDAEEAVELVQYAYFKKVLEKEKKRKKRSEDESETEDEEEKSQEDQEQKRKRRKTRQPDAKDGDSYDPYDFSDTEEEMPQVHTPKTADSQETKESQKVELSESRLKAFKVALLDVFREAHAQSIGMNRLTESINRDSEEPFSSVEIQAALSKMQDDNQVMVSEGIIFLI
As to B1, the binding entry is listed as “binds”.

B2: ORF36 (protein, UniProt F5HGH5 1-444)
chain: MRWKRMERRPPLTPLRRSRTQSSGGGLTICPRCALKLPKATRISERPWASTWQLNQHIQVSKTKKATAYLKAPREWGQCTHQDPDWSKRLGRGAFGIIVPISEDLCVKQFDSRREFFYEAIANDLMQATRERYPMHSGGSRLLGFVQPCIPCRSIVYPRMKCNLLQLDWSQVNLSVMAAEFTGLMAAVSFLNRYCGMVHCDVSPDNILATGDLTPMNPGRLVLTDFGSVALHSGSKWTNLVVTSNLGFKQHCYDFRVPPKLICKHLYKPSCVLFQCYLSSLGKMHAQVLDQPYPISPNMGLTIDMSSLGYTLLTCLELYLDLPLNNPLKFLGSATRDGRPEPMYYLGFMIPRVVMTQILSAVWTMTLDLGLDCTGKAQAIPMRQEHQLAFQKQCYLYKANQKAESLANCSDKLNCPMLKSLVRKLLERDFFNHGGHPHTRGLVF
As for B2, the binding result is recorded as “binds”.

B3: Guanine nucleotide binding protein-like 3 (Nucleolar), isoform CRA_b (protein, UniProt Q9BVP2 1-549)
chain: MKRPKLKKASKRMTCHKRYKIQKKVREHHRKLRKEAKKRGHKKPRKDPGVPNSAPFKEALLREAELRKQRLEELKQQQKLDRQKELEKKRKLETNPDIKPSNVEPMEKEFGLCKTENKAKSGKQNSKKLYCQELKKVIEASDVVLEVLDARDPLGCRCPQVEEAIVQSGQKKLVLILNKSDLVPKENLESWLNYLKKELPTVVFRASTKPKDKGKITKRVKAKKNAAPFRSEVCFGKEGLWKLLGGFQETCSKAIRVGVIGFPNVGKSSIINSLKQEQMCNVGVSMGLTRSMQVVPLDKQITIIDSPSFIVSPLNSSSALALRSPASIEVVKPMEAASAILSQADARQVVLKYTVPGYRNSLEFFTVLAQRRGMHQKGGIPNVEGAAKLLWSEWTGASLAYYCHPPTSWTPPPYFNESIVVDMKSGFNLEELEKNNAQSIRAIKGPHLANSILFQSSGLTNGIIEEKDIHEELPKRKERKQEEREDDKDSDQETVDEEVDENSSGMFAAEETGEALSEETTAGEQSTRSFILDKIIEEDDAYDFSTDYV
For B3, the binding result was “binds”.

B4: tRNA-splicing ligase RtcB homolog (protein, UniProt Q9Y3I0 1-505)
chain: MSRSYNDELQFLEKINKNCWRIKKGFVPNMQVEGVFYVNDALEKLMFEELRNACRGGGVGGFLPAMKQIGNVAALPGIVHRSIGLPDVHSGYGFAIGNMAAFDMNDPEAVVSPGGVGFDINCGVRLLRTNLDESDVQPVKEQLAQAMFDHIPVGVGSKGVIPMNAKDLEEALEMGVDWSLREGYAWAEDKEHCEEYGRMLQADPNKVSARAKKRGLPQLGTLGAGNHYAEIQVVDEIFNEYAAKKMGIDHKGQVCVMIHSGSRGLGHQVATDALVAMEKAMKRDKIIVNDRQLACARIASPEGQDYLKGMAAAGNYAWVNRSSMTFLTRQAFAKVFNTTPDDLDLHVIYDVSHNIAKVEQHVVDGKERTLLVHRKGSTRAFPPHHPLIAVDYQLTGQPVLIGGTMGTCSYVLTGTEQGMTETFGTTCHGAGRALSRAKSRRNLDFQDVLDKLADMGIAIRVASPKLVMEEAPESYKNVTDVVNTCHDAGISKKAIKLRPIAVIKG
With B4, the binding result is “binds”.
